Data reported in patent US20210161894A1, “Compositions and Methods for Modulating Liver Endothelial Cell Fenestrations” (priority 2017, published 2021).
“Also recorded” adds a separate entry of the source. At least one compound was matched to its structure with a doubt left. Some entries share one result that the patent states for a list of compounds.

Key:
[1] = test system: isolated LSECs (liver sinusoidal endothelial cells); test: SEM of fenestrations in isolated LSECs from young and old mice after 30 min drug treatment (second Example 7); assay type: cell-based
Experimental: 3-4 and 18-24 month old male C57/B16 mice were obtained from the Animal Resource Centre in Perth, Western Australia. Animals were housed at the ANZAC Research Institute animal house on a 12 hour light/dark cycle and provided with ad libitum access to food and water. Mice were not fasted prior to euthanasia by a single intraperitoneal injection with 100 mg/kg ketamine and 10 mg/kg xylazine in saline. The study was approved by the Animal Welfare Committee of the Sydney Local Health District and was performed in accordance with the Australian Code of Practice for the care and use of animals for scientific research (AWC 2016/009). All information provided accords with the ARRIVE guidelines.
As described previously (Cogger et al. J e52698, 2015 https://dx.doi.org/10.3791/52698), mouse LSEC isolation was performed by perfusion of the liver with collagenase. Non-parenchymal cells were removed by a two-step Percoll gradient and Kupffer cells were removed by selective adherence to plastic. LSECs (seeded at 0.5×10^6 cells/cm2) were cultured (37° C., 5% CO2) in serum free RPMI-1640 for 3.5 hours before use.
Cells were treated with various agents for 30 minutes to determine effects on fenestrations. All agents were dissolved in serum-free RPMI media. All experiments were performed in triplicate for both young and old mice. Actin was disrupted with 0.5 μg/ml cytochalasin D and lipid rafts were disrupted with 3.6 and 1.8 μg/ml 7-keocholesterol; dosages were selected. […] The serotonergic/phospholipase C pathway was promoted with DOI (0.1 μg/ml) and endothelin receptors were inhibited by bosentan (550, 55 and 5.5 ng/ml) Death receptor 4 was promoted with TRAIL (100, 10. 1, 0.1 and 0.01 ng/ml) and NAD+ was promoted with NMN (5000, 50, 10, 1 and 0.1 μg/ml).
SEM was performed as previous described (Corbin et al J Biol Chem 274: 13729-13732, 1999.). LSECs were fixed in 2.5% glutaraldehyde in 0.1M sodium cacodylate buffer, osmicated, dehydrated in graded ethanol and hexamethyl disilazane, mounted on stubs, sputter coated with platinum and examined using a JEOL 6380 Scanning Electron Microscope (JEOL Ltd, Japan). Images at 10,000× magnification were collected by a blinded observer and used to measure fenestration diameter and LSEC porosity using Image J (NIH, MD, USA). […] Fenestrations less than 30 nm and gaps more than 300 nm were excluded from analysis. Porosity was defined as the percentage of the cell membrane covered with fenestrations. Frequency was defined at the number of fenestrations per […].
Individual specifications of analyses are described in figures legends. All data are presented as mean±SD. Experimental design and analysis were performed in accordance with the APS guidelines described in Curran-Everett and Benos DJ. Adv Physiol Educ 31: 295-298, 2007.

LSEC fenestrations = test: SEM of LSEC fenestrations after drug treatments (Example 2, FIGS. 1-6); assay type: cell-based, mice; details: for change in fenestration porosity / change in fenestration frequency: Cytochalasin D 0.5 μg/ml, Amlodipine 20 ng/ml; for change in fenestration frequency: Bosentan 0.1 μM, Sildenafil 300 ng/ml
Description: Young and old C57B16 mice (n=3 young mice, age 3-4 and n=3 old mice, 20-24 months) were maintained under full SPF conditions and with ad libitum feeding. The study had the approval of the Sydney South West Area Health Service Animal Welfare Committee. Mice at 20-24 months are senescent. Animals were sacrificed withCO2 and livers immediately perfusion-fixed via a 23G needle inserted into the portal vein. Liver tissue was fixed with1% glutaraldehyde/4% para-formaldehyde in PBS (0.1M sucrose).
Drug treatments and dosages (shown superimposed on their corresponding image in FIGS. 1, and 2) were performed by incubating liver cells at 37° C., 5% CO2 for 30 mins using RPMI with or without dissolved drug. All images were taken by two blinded researchers using a SEM at 10,000×, scale bars of 1 μm are shown.
Each data point represents the average±SD of 8 images (as shown in FIGS. 1 and 2), 616-3312 fenestration raw data points were collected per treatment.

[2] = test system: actin cytoskeleton of LSECs; test: dSTORM imaging of the actin cytoskeleton; assay type: cell-based; details: young mice
Experimental: dSTORM imaging was performed using an in-house microscope. LSECs were prepared for dSTORM by washing twice with PBS and fixation with 4% paraformaldehyde for 30 mins. Then LSECs were washed twice with PBS, permeabilised with Triton-X for 90 secs, blocked with 5% bovine serum albumin for 1 hour, and stained with Alexa Flour phalloidin 488 (1:40) for 20 min prior to imaging. Cells were washed using PBS with 0.1% Tween and placed in OxEA buffer (30) for dSTORM visualisation and image capture. The dSTORM used 488 and 647 nm excitation from diode-pumped lasers (Coherent Inc, CA, USA). Excitation was delivered via a 1.49NA 60× oil-immersion TIRF objective (Olympus Australia, AUS). Fluorescence was captured on two separate sCMOS cameras (Imaging Development Systems GmbH, Germany). Data was collected for up to 40,000 images at around 75 fps. 5-8 whole cell images were collected by a blinded observer for each treatment dosage and processed using rapidSTORM open source software (Wolter et al. Nat Methods 9: 1040, 2012.). Each image was examined for all sieve plates and actin structures. Densitometry measurements were performed using 5-8 dSTORM images with data analysis performed using Image J software (NIH, MD, USA).

Intracellular cGMP = test: Cyclic GMP ELISA; assay type: cell-based, mice
Experimental: Assays for MTT and cGMP were performed as instructed by the kit. Briefly, MTT assays were performed following drug treatments. Cells were washed with PBS and incubated with RPMI media containing […] MTT solution. Cells were incubated at 37° C. for 4 hrs and lysed with […] solubilisation solution, 30 mins colour development followed and measured at 570 nm using a spectrophotometer. cGMP assays were also performed after drug treatments. Cells were washed with PBS and lysed with 0.1M HCl. Following sample collection the sample was acetylated and prepared with kit reagents. Samples were incubated for 18 hrs at 4° C. before examination at 410 nm with a spectrophotometer.

[3] = old mice, DOI 0.1 μg/ml, 7KC 9 μM
[4] = young mice, DOI 0.1 μg/ml, 7KC 9 μM

With `CCOC(=O)C1=C(COCCN)NC(C)=C(C(=O)OC)C1c1ccccc1Cl` (stereo not shown) [Amlodipine, amlodipine] the gap formation [1] was “Gap formation was apparent”, the “effect on porosity and fenestration frequency (summary in words)” value ([1]; young and old LSECs) was “LSECs from young mice only demonstrated significant increases in porosity and frequency” and the “dose response on fenestration porosity (words)” value ([1]; young mice) was “limited dosage range for positive effects on fenestration porosity”. For the same molecule, the “fenestration numbers, fenestrated cell area and sieve plate formation” value ([1]; young mice, sildenafil 0.3 μg/ml, amlodipine 20 ng/ml, TRAIL 1 ng/ml) was “increased fenestration numbers and overall fenestrated cell area with some disruption to sieve plate formation”, the “change in fenestration porosity” value (LSEC fenestrations; [3]) was “increased fenestration porosity and frequency” and the “change in fenestration frequency” value (LSEC fenestrations; [3]) was “increased fenestration porosity and frequency”. For the same molecule, the “sieve plates and fenestration density on SEM images” value (LSEC fenestrations; young and old mice) was “maintained sieve plates and increased fenestration density”, the “change in fenestration frequency” value (LSEC fenestrations; young mice) was “increased fenestration porosity and frequency” and the “change in fenestration porosity” value (LSEC fenestrations; [4]) was “increased fenestration porosity and frequency”. The “actin changes with drug treatments (dSTORM)” value [2] was “Individual fenestrations; also recorded: Disordered actin structure; also recorded: Dense actin plasma membrane; also recorded: Actin clusters; also recorded: Gap formations”, the “actin changes with drug treatments (dSTORM)” value ([2]; listed as amlodipine) was “loss of smooth fibres encircling the cytoplasm; also recorded: disordered, dense actin staining in the plasma membrane and clustering of actin within the cytoplasm” and the “change of intracellular cGMP” value (Intracellular cGMP) was “no changes”.
In the case of `NC(=O)c1ccc[n+]([C@@H]2O[C@H](COP(=O)([O-])O)[C@@H](O)[C@H]2O)c1` [NMN, nicotinamide mononucleotide], the “peak of the frequency distribution of fenestration diameter” value ([1]; old mice, 7-ketocholesterol 3.6 μg/ml) is reported as 101-125 nm.
With `CCC(C)(C)C(=O)O[C@H]1C[C@@H](C)C=C2C=C[C@H](C)[C@H](CC[C@@H]3C[C@@H](O)CC(=O)O3)[C@H]21` [Simvastatin, simvastatin] the “gaps (>300 nm)” value ([1]; old mice, 1 μM) was “increased”, the “gaps (>300 nm) on SEM images” value (LSEC fenestrations) was “promoted” and the “change in fenestration porosity” value (LSEC fenestrations; [3]) was “did not significantly change fenestration porosity or frequency”. The “change in fenestration frequency” value (LSEC fenestrations; [3]) was “did not significantly change fenestration porosity or frequency”, the “change in fenestration frequency” value (LSEC fenestrations; young mice) was “did not significantly change fenestration porosity or frequency” and the “change in fenestration porosity” value (LSEC fenestrations; [4]) was “did not significantly change fenestration porosity or frequency”.
